# Results taken from publication PMC2920814 (PLoS ONE, 2010).
# What was measured:
# [1] = Physiological parameters of tMCAo rats (MDS PS study)
# [2] = Physiological parameters of tMCAo rats (Neurokin study); conditions: pre-MCAo treatment
# [3] = post- 1mg/kg/hr group, Post-occlusion
# [4] = post- 1mg/kg/hr group, Post-reperfusion
# [5] = post- 1mg/kg/hr group, Pre-occlusion
# [6] = post- 5mg/kg/hr group, Post-occlusion
# [7] = post- 5mg/kg/hr group, Post-reperfusion
# [8] = post- 5mg/kg/hr group, Pre-occlusion
# [9] = post- 10mg/kg/hr group, Post-occlusion
# [10] = post- 10mg/kg/hr group, Post-reperfusion
# [11] = post- 10mg/kg/hr group, Pre-occlusion
smiles,measurement,setting,value
CC[C@@H](CO)Nc1nc(NCc2ccccc2)c2ncn(C(C)C)c2n1 [(S)-roscovitine],Body temp,[1]; [3],37.3 +/- 0.1 ^oC
same,Glucose,[1]; [3],276 ± 19 mg/dL
same,Body temp,[1]; [4],38.3 +/- 0.1 ^oC
same,Glucose,[1]; [4],166 ± 6 mg/dL
same,Body temp,[1]; [5],37.6 +/- 0.1 ^oC
same,Glucose,[1]; [5],105 ± 4 mg/dL
same,Body temp,[1]; [6],37.2 +/- 0.0 ^oC
same,Glucose,[1]; [6],259 ± 25 mg/dL
same,Body temp,[1]; [7],38.5 +/- 0.2 ^oC
same,Glucose,[1]; [7],172 ± 11 mg/dL
same,Body temp,[1]; [8],37.5 +/- 0.1 ^oC
same,Glucose,[1]; [8],98 ± 2 mg/dL
same,Body temp,[1]; [9],37.2 +/- 0.0 ^oC
same,Glucose,[1]; [9],257 ± 24 mg/dL
same,Body temp,[1]; [10],38.6 +/- 0.2 ^oC
same,Glucose,[1]; [10],167 ± 9 mg/dL
same,Body temp,[1]; [11],37.5 +/- 0.1 ^oC
same,Glucose,[1]; [11],116 ± 11 mg/dL
same,Body temp,"[1]; pre- group, Post-occlusion",37.5 +/- 0.1 ^oC
same,Glucose,"[1]; pre- group, Post-occlusion",297 ± 26 mg/dL
same,Body temp,"[1]; pre- group, Post-reperfusion",38.3 +/- 0.2 ^oC
same,Glucose,"[1]; pre- group, Post-reperfusion, ** p<0.05",198 ± 313 mg/dL
same,Body temp,"[1]; pre- group, Pre-occlusion",37.3 +/- 0.1 ^oC
same,Glucose,"[1]; pre- group, Pre-occlusion",104 ± 5 mg/dL
same,Body temp,[2]; Post-occlusion,36.8 +/- 0.1 ^oC
same,Glucose,[2]; Post-occlusion,214 ± 15 mg/dL
same,Body temp,"[2]; Post-reperfusion, ** p<0.05 vs vehicle",38.1 +/- 0.2 ^oC
same,Body temp,[2]; Pre-occlusion,37.1 +/- 0.1 ^oC
same,Glucose,[2]; Pre-occlusion,154 ± 8 mg/dL
